Results from publication doi:10.1101/2023.07.14.548990.
No constants are given. Whether binding was seen depends on the method and setting. In cells and extracts the contact can be indirect. Some entries that bind do so weakly or less than the wild type.

Amino acid sequences for entries named in this document (tags omitted).
UniProt P08912: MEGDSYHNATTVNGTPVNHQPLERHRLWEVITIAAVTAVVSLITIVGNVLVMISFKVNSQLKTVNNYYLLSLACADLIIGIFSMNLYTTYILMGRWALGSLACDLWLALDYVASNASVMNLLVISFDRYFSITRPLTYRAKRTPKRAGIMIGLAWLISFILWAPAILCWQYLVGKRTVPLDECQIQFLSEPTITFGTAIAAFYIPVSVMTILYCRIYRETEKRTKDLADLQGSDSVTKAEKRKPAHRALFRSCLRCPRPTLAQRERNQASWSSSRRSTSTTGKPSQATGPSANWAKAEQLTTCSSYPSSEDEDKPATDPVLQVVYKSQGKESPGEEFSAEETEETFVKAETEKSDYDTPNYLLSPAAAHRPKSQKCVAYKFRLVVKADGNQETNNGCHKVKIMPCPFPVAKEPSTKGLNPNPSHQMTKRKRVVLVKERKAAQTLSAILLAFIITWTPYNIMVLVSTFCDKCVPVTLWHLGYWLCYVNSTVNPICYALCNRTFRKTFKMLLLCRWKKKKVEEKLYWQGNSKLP
UniProt P32120: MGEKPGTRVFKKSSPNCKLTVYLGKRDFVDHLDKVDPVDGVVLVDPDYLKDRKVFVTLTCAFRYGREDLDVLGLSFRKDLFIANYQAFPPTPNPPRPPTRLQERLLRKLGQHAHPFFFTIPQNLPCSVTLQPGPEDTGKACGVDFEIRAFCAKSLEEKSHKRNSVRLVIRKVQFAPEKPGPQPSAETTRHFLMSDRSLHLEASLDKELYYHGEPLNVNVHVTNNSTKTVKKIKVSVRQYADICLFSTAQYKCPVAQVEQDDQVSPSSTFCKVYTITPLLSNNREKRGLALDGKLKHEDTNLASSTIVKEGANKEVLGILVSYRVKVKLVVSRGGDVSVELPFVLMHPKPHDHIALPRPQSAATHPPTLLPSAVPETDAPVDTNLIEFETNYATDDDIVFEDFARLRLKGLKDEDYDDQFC

Target: muscarinic M5 acetylcholine receptor-NanoLuciferase (human) (UniProt P08912)
Assay: FRET or BRET

binding: binds
Substance: Halo-Tag-β-arrestin2 (from UniProt P32120 1-420)
